For part of its entries the source gives two or more results. Only these are listed. The source may hold further records. The records of an entry differ for a reason that is not stated; dose, time, organism, isomer or construct need not be as stated for each record.

In the assay the test system is Saccharomyces cerevisiae. The assay can be described thus: Fungal growth inhibition, S. cerevisiae (library hits, Table A). Conditions: Table A in S1 File, strain not stated. The class given is cell-based.

For `O=C(NC1CCCc2c1[nH]c1ccc(Br)cc21)c1ccccc1F` (centres unmarked), the “MIC S.cerevisiae (Table A)” value is > 150 µM and nor exhibited antifungal activity.

For the compound `O=C(NC1CCCc2c1[nH]c1ccc(Br)cc21)c1ccccn1` (centres unmarked), the “MIC S.cerevisiae (Table A)” value was > 150 µM and nor exhibited antifungal activity.

(Values after article PMC5749684, “Tetrahydrocarbazoles are a novel class of potent P-type ATPase inhibitors with antifungal activity” (PLoS ONE, 2018).)
